Reference: paper PMC9399600
Results are given in words; binding and its absence hold for the method and conditions named. Binding seen in cells or lysates may run through a third protein. Tags and fused reporters may be left off the sequences shown.

Target: T1, Flag-RIG-I (retinoic acid-inducible gene I) (UniProt O95786)
T1 sequence: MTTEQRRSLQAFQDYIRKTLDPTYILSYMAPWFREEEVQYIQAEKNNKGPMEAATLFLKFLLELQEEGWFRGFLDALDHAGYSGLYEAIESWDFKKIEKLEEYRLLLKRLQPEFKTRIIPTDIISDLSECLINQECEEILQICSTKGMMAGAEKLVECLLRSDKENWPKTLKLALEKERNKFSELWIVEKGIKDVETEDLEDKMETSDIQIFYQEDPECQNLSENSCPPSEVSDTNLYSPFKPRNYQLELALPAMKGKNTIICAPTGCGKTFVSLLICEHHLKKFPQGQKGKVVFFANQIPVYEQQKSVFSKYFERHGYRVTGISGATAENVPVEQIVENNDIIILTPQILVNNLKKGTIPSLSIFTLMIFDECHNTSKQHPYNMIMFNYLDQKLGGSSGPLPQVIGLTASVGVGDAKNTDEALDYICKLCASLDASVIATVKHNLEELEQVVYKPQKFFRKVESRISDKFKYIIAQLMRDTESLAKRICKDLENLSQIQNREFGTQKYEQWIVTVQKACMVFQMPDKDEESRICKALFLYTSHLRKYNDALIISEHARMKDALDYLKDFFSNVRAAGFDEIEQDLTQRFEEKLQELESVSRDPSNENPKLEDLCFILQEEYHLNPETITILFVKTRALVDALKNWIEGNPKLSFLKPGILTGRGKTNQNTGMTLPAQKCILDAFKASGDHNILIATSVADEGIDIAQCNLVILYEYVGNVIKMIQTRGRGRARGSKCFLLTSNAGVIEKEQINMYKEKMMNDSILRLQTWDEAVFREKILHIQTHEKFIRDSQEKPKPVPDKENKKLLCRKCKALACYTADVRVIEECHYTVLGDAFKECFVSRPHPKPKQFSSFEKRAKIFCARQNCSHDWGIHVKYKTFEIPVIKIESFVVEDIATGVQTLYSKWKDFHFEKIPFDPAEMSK
Assay: co-IP; HEK-293T cells co-transfected with HA-DDX21 and Flag-RIG-I; lysis buffer 50 mM Tris-HCl, 150 mM NaCl, 1% NP-40, 10% glycerin, 0.1% SDS, 2 mM Na2EDTA; precipitated with anti-HA (methods) or anti-Flag (legend of Figure 5D) antibody and protein A+G agarose at 4°C; western blot with anti-Flag and anti-HA

B1: HA-DDX21 (DEAD-box RNA helicase 21) (protein, UniProt Q9NR30 1-783)
chain: MPGKLRSDAGLESDTAMKKGETLRKQTEEKEKKEKPKSDKTEEIAEEEETVFPKAKQVKKKAEPSEVDMNSPKSKKAKKKEEPSQNDISPKTKSLRKKKEPIEKKVVSSKTKKVTKNEEPSEEEIDAPKPKKMKKEKEMNGETREKSPKLKNGFPHPEPDCNPSEAASEESNSEIEQEIPVEQKEGAFSNFPISEETIKLLKGRGVTFLFPIQAKTFHHVYSGKDLIAQARTGTGKTFSFAIPLIEKLHGELQDRKRGRAPQVLVLAPTRELANQVSKDFSDITKKLSVACFYGGTPYGGQFERMRNGIDILVGTPGRIKDHIQNGKLDLTKLKHVVLDEVDQMLDMGFADQVEEILSVAYKKDSEDNPQTLLFSATCPHWVFNVAKKYMKSTYEQVDLIGKKTQKTAITVEHLAIKCHWTQRAAVIGDVIRVYSGHQGRTIIFCETKKEAQELSQNSAIKQDAQSLHGDIPQKQREITLKGFRNGSFGVLVATNVAARGLDIPEVDLVIQSSPPKDVESYIHRSGRTGRAGRTGVCICFYQHKEEYQLVQVEQKAGIKFKRIGVPSATEIIKASSKDAIRLLDSVPPTAISHFKQSAEKLIEEKGAVEALAAALAHISGATSVDQRSLINSNVGFVTMILQCSIEMPNISYAWKELKEQLGEEIDSKVKGMVFLKGKLGVCFDVPTASVTEIQEKWHDSRRWQLSVATEQPELEGPREGYGGFRGQREGSRGFRGQRDGNRRFRGQREGSRGPRGQRSGGGNKSNRSQNKGQKRSFSKAFGQ
Q: For B1, which binding is on record?
A: no binding
